PubChem BioAssay AID1259254 | NCATS, 2017
In all, the deposit lists about 59,000 reagents; below is a random part of them. Of all reagents, about 1,550 (2.6%) got an active call. 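G2 share is only a proxy for re-replication; each gene was hit by three separate siRNAs, and active genes were retested.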 Reagents against one gene are numbered here. Further read-outs or replicates are left out here. The record does not give: the amount of reagent.

- Aim: 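Gene knock-downs that lead to re-replication, shown by excess G2 DNA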 (primary screen)
- Cell system: human HCT116 colorectal cancer cells
- Knock-down reagent: single siRNA against human genes
- Time to read-out: 3 days
- Measured: 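Nuclei stained with Hoechst and imaged; cell-cycle phase assigned by DNA content; G2 share scaled per plate, non-targeting siRNA 0%, GMNN siRNA 100%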
- Scale: G2 robust z-score: higher = more G2 cells, more excess DNA replication
- Active means: 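Active siRNAs have a G2 robust z of 5 or more median absolute deviations over the median, which in these data means about 38% or higher of GMNN control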

no.	Gene	reagent	G2 robust z-score	Call
1	CSF2RB (colony stimulating factor 2 receptor subunit beta)	1	-1.42	inactive
2	CSF2RB (colony stimulating factor 2 receptor subunit beta)	2	1.93	inactive
3	CSF2RB (colony stimulating factor 2 receptor subunit beta)	3	0.126	inactive
4	LTB4R (leukotriene B4 receptor)	1	0.281	inactive
5	LTB4R (leukotriene B4 receptor)	2	-0.546	inactive
6	LTB4R (leukotriene B4 receptor)	3	0.393	inactive
7	DOCK4 (dedicator of cytokinesis 4)	1	-0.0106	inactive
8	DOCK4 (dedicator of cytokinesis 4)	2	-0.376	inactive
9	DOCK4 (dedicator of cytokinesis 4)	3	-0.599	inactive
10	DDX55 (DEAD-box helicase 55)	1	2.73	inactive
11	DDX55 (DEAD-box helicase 55)	2	2.97	inactive
12	DDX55 (DEAD-box helicase 55)	3	-0.987	inactive
13	PHF21B (PHD finger protein 21B)	1	-0.286	inactive
14	PHF21B (PHD finger protein 21B)	2	-0.239	inactive
15	PHF21B (PHD finger protein 21B)	3	-0.0455	inactive
16	MAB21L2 (mab-21 like 2)	1	12.4	active
17	MAB21L2 (mab-21 like 2)	2	-0.773	inactive
18	MAB21L2 (mab-21 like 2)	3	-0.339	inactive
19	DMXL2 (Dmx like 2)	1	-1.3	inactive
20	DMXL2 (Dmx like 2)	2	1.38	inactive
21	DMXL2 (Dmx like 2)	3	-0.842	inactive
22	WDR76 (WD repeat domain 76)	1	-1.04	inactive
23	WDR76 (WD repeat domain 76)	2	-0.576	inactive
24	WDR76 (WD repeat domain 76)	3	-0.163	inactive
25	OR52W1 (olfactory receptor family 52 subfamily W member 1)	1	-0.962	inactive
26	OR52W1 (olfactory receptor family 52 subfamily W member 1)	2	-0.676	inactive
27	OR52W1 (olfactory receptor family 52 subfamily W member 1)	3	-0.838	inactive
28	MS4A8 (membrane spanning 4-domains A8)	1	-0.944	inactive
29	MS4A8 (membrane spanning 4-domains A8)	2	-1.23	inactive
30	MS4A8 (membrane spanning 4-domains A8)	3	1.96	inactive

Individual results from the list:
Entry of MAB21L2 (mab-21 like 2) #2 under “Call”: inactive
Result for OR52W1 (olfactory receptor family 52 subfamily W member 1) #2 under “Call”: inactive
DDX55 (DEAD-box helicase 55) #2, G2 robust z-score → 2.97
